Source: the supplement of paper PMC8166895
Where a name gives a salt, the structure may show the parent alone. Some of the results follow. Most values lie at the level of the controls, where differences are scatter.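 Differential scanning fluorimetry gave melting temperatures in a one-replicate pilot screen of a library of approved drugs plus clinical or known-target compounds. Hits increasing melting point at least 2 °C were the strongest stabilizers, while negative shifts signify destabilization.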

System: SARS-CoV-2 main protease (Mpro, nsp5)
Assay: thermal shift ΔTm of Mpro relative to plate average Tm; higher = stronger thermal stabilization of Mpro (binding)
Conditions: 10 µM; protein concentration 1 µM

Structure (SMILES)	thermal shift ΔTm of Mpro
C=CC(=O)Nc1cccc(Sc2nc(Nc3ccc(N4CCN(C)CC4)cc3)ncc2Cl)c1	0.775 °C
COc1ccc2[nH]c(SCc3ncc(C)c(OC)c3C)nc2c1 [Omeprazole sulfide]	0.34 °C
CC(C)NCC(O)COc1ccc(CC(N)=O)cc1 (stereo unspecified) [Atenolol]	-0.0652 °C
CCCCNc1ncc(C(=O)NCc2ccc(-n3ccnc3)cc2)c(NC2CCC(O)CC2)n1 (stereo unspecified)	-0.294 °C
CCCCCCCCNc1cc(=O)[nH]c(=O)[nH]1	0.312 °C
CCN1CCN(Cc2ccc(NC(=O)Nc3ccc(Oc4cc(NC)ncn4)cc3)cc2C(F)(F)F)CC1	0.115 °C
Cc1noc(-c2ccc(-c3ccc(CC(=O)O)cc3)cc2)c1NC(=O)OC(C)c1ccccc1Cl (stereo unspecified)	-0.312 °C
C[C@H]1O[C@H](O[C@H]2[C@H](O)[C@@H](O)[C@@H](O[C@@H]([C@H](O)[C@@H](O)C=O)[C@H](O)CO)O[C@@H]2CO)[C@H](O)[C@@H](O)[C@@H]1N[C@H]1C=C(CO)[C@@H](O)[C@H](O)[C@H]1O [Acarbose]	0.175 °C
O=C([O-])c1ccccn1.O=C([O-])c1ccccn1.O=C([O-])c1ccccn1.[Cr+3] [Chromium picolinate]	0.269 °C
O=C(c1ccc2nonc2c1)N1CCCCC1 [Farampator]	-0.0784 °C
Cn1c(CCCC(=O)O)nc2cc(N(CCCl)CCCl)ccc21 [Bendamustine HCl]	0.123 °C
CC(C)NC[C@@H](C(=O)N1CCN(c2ncnc3c2[C@H](C)C[C@H]3O)CC1)c1ccc(Cl)cc1	-0.173 °C
CC(C)(C)c1cc(C(C)(C)C)c(NC(=O)c2c[nH]c3ccccc3c2=O)cc1O [Ivacaftor (VX-770)]	0.482 °C
Cc1ccc([C@@H]2O[C@H](CO)[C@@H](O)[C@H](O)[C@H]2O)cc1Cc1ccc(-c2ccc(F)cc2)s1 [Canagliflozin]	0.00301 °C
CCCc1cc(C)[nH]c(=O)c1CNC(=O)c1cc(-c2ccnc(N3CCN(C)CC3)c2)cc2c1cnn2C(C)C	0.0697 °C
CC(=O)N(CC(O)CO)c1c(I)c(C(=O)NCC(O)CO)c(I)c(C(=O)NCC(O)CO)c1I (stereo unspecified) [Iohexol]	0.0786 °C
COC(=O)Nc1nc2cc(Sc3ccccc3)ccc2[nH]1 [Fenbendazole]	0.0497 °C
COc1cccc(C=NCCN=Cc2cccc(OC)c2[O-])c1[O-].[Cl-].[Mn+3]	0.0273 °C
Cn1c(=O)c2c(ncn2CC2OCCO2)n(C)c1=O [Doxofylline]	-0.0886 °C
Oc1cc2c(cc1O)C(c1ccccc1)CNCC2 (stereo unspecified)	-0.722 °C
COc1ccc(Oc2cc(C)c(-c3csc(NC(=O)c4ccncc4)n3)c(C)c2)cc1	-0.426 °C
O=C(O)C1=C(CSc2nnnn2CS(=O)(=O)O)CS[C@@H]2[C@H](NC(=O)[C@H](O)c3ccccc3)C(=O)N12 [Cefonicid sodium]	0.183 °C
CCc1cc2c(cc1CC)CC(NC[C@H](O)c1ccc(O)c3[nH]c(=O)ccc13)C2 [Indacaterol Maleate]	0.221 °C

Quoted from the entries so far (2 entries):
Structure (SMILES)	thermal shift ΔTm of Mpro
Cn1c(CCCC(=O)O)nc2cc(N(CCCl)CCCl)ccc21 [Bendamustine HCl]	0.123 °C
CC(C)NC[C@@H](C(=O)N1CCN(c2ncnc3c2[C@H](C)C[C@H]3O)CC1)c1ccc(Cl)cc1	-0.173 °C

Following part.

Structure (SMILES)	thermal shift ΔTm of Mpro
CCc1cc2c(cc1CC)CC(NC[C@H](O)c1ccc(O)c3[nH]c(=O)ccc13)C2 [Indacaterol]	-0.0119 °C
C=C[C@]1(C)C[C@@H](OC(=O)CSC(C)(C)CNC(=O)[C@H](N)C(C)C)[C@]2(C)[C@H](C)CC[C@]3(CCC(=O)[C@H]32)[C@@H](C)[C@@H]1O [Valnemulin HCl]	-0.217 °C
CC(C=CC1(O)C(C)=CC(=O)CC1(C)C)=CC(=O)O (stereo unspecified) [Abscisic Acid (Dormin)]	-0.226 °C
Cc1sc2c(c1C)C(c1ccc(Cl)cc1)=N[C@@H](CC(N)=O)c1nnc(C)n1-2	-0.239 °C
CCN(CC)CCNC(=O)c1ccc(N)cc1 [Procainamide HCl]	0.0943 °C
NC[C@H](O)c1ccc(O)c(O)c1 [Noradrenaline bitartrate]	0.00908 °C
NC[C@H](O)c1ccc(O)c(O)c1 [Noradrenaline bitartrate monohydrate]	-0.732 °C
O=C(O)c1ccnc(C(=O)O)c1 [lutidinic acid]	-0.0393 °C
CCc1cnc(N2CCC(c3nc(COc4ccc(-n5cnnn5)cc4)cs3)CC2)nc1	0.04 °C
N#Cc1c(N(CC(=O)O)CC(=O)O)sc(C(=O)O)c1CC(=O)O [Strontium ranelate]	0.00082 °C
CC[C@H]1OC(=O)[C@H](C)[C@@H](O[C@H]2C[C@@](C)(OC)[C@@H](O)[C@H](C)O2)[C@H](C)[C@@H](O[C@@H]2O[C@H](C)C[C@H](N(C)C)[C@H]2O)[C@](C)(O)C[C@@H](C)CN(C)[C@H](C)[C@@H](O)[C@]1(C)O [Azithromycin Dihydrate]	-0.0718 °C
CC[C@H]1OC(=O)[C@H](C)[C@@H](O[C@H]2C[C@@](C)(OC)[C@@H](O)[C@H](C)O2)[C@H](C)[C@@H](O[C@@H]2O[C@H](C)C[C@H](N(C)C)[C@H]2O)[C@](C)(O)C[C@@H](C)CN(C)[C@H](C)[C@@H](O)[C@]1(C)O [Azithromycin]	0.0738 °C
CCOC(=O)C1=C(C)NC(=S)NC1c1cccc(O)c1 (stereo unspecified) [Monastrol]	-0.0491 °C
CCn1c(N)c(C(=O)NC)c(=O)c2ccc(C#CC(C)(O)COC)nc21 (stereo unspecified)	0.038 °C
CN1CCc2nc(C(=O)N[C@@H]3C[C@@H](C(=O)N(C)C)CC[C@@H]3NC(=O)C(=O)Nc3ccc(Cl)cn3)sc2C1 [Edoxaban]	0.134 °C
N[C@@H]1C[C@H]1c1ccccc1 [Tranylcypromine (2-PCPA) HCl]	-0.0942 °C
OCCn1cc(-c2ccc3c(c2)CC/C3=N\O)c(-c2ccncc2)n1	0.2 °C
CN[C@H]1CC[C@@H](c2ccc(Cl)c(Cl)c2)c2ccccc21 [Sertraline HCl]	0.0373 °C
COC(=O)N[C@H](C(=O)NNC[C@H](O)[C@H](Cc1ccccc1)NC(=O)[C@@H](NC(=O)OC)C(C)(C)C)C(C)(C)C [Des(benzylpyridyl) Atazanavi]	-0.00162 °C
O=C(O)c1cccc(-c2noc(-c3ccccc3F)n2)c1 [Ataluren (PTC124)]	0.0934 °C
Nc1ccc(S(=O)(=O)Nc2nccs2)cc1 [Sulfathiazole]	-0.0335 °C
CCS(=O)(=O)CCSP(=O)(OC)OC [Demeton-s-methyl sulfone]	0.00242 °C
O=C1C(Cl)=C(N2CCOCC2)C(=O)N1c1ccc(Cl)c(Cl)c1	0.0792 °C
